The target in the test is KhpB-3xFLAG (Deinococcus radiodurans) (UniProt Q9RXR1). Briefly: affinity purification with mass spectrometry.

Chains of the proteins cited; added tags and fusions are not shown.
UniProt Q9RXK5: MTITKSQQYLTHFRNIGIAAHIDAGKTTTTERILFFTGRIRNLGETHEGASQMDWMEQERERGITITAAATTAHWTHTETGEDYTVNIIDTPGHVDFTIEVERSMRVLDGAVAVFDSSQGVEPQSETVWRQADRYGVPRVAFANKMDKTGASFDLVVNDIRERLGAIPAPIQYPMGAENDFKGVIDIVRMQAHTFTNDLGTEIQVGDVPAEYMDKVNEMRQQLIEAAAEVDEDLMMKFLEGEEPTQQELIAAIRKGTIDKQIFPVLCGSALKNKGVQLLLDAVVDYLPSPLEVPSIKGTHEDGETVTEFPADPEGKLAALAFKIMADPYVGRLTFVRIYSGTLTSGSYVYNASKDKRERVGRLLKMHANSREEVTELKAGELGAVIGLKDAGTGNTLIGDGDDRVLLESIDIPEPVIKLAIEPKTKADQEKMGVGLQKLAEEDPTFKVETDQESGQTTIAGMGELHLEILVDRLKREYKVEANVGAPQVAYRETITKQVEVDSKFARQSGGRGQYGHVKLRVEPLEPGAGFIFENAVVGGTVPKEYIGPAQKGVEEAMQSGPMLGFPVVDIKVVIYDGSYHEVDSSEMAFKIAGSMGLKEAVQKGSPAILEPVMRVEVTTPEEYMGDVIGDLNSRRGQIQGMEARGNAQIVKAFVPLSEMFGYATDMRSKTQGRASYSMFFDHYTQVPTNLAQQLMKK

Results are given in words; binding and its absence hold for the method and conditions named. Binding seen in cells or lysates may run through a third protein. Here binding means that the protein was enriched with, or labelled near, the bait; the list need not be complete.

Data on two molecules can be found in paper doi:10.1101/2025.09.18.676964.

For “elongation factor G (from UniProt Q9RXK5 1-698)”, the binding result is on record as “binds”.

B1: Rsr (protein, UniProt Q9RUW8 1-531)
chain: MKNLLRAINPLNRPQTERLDERQVRNNAGGFVYTVSDESRLTRFLVLGVDGGTFYASAQKHTVQATDFVRELVQRDAALALRVTLDVVRGQRAPKADPALLVLALIAKTAPNAADRKAAWDALPEVARTGTMLLHFLAFADALGGWGRLTRRGVANVYETADVDKLALWAVKYKARDGWSQADALRKAHPKTDDAARNAVLKFMVDGVLPKVDSPALRVIEGHLKATEAQTDAAAAALMQEYRLPLEAVPTHVRGAEVYRAAMQTNGLTWLLRNLGNLGRVGVLTPNDSATVQAVIERLTDPAALKRGRIHPLDALKARLVYAQGQGVRGKGTWLPVPRVVDALEEAFTLAFGNVQPANTRHLLALDVSGSMTCGDVAGVPGLTPNMAAAAMSLIALRTEPDALTMGFAEQFRPLGITPRDTLESAMQKAQSMSFGGTDCAQPILWAAQERLDVDTFVVYTDNETWAGQVHPTVALDQYAQKMGRAPKLIVVGLTATEFSIADPQRRDMLDVVGFDAAAPNVMTAFARGEV
On to B1, for which the binding result is reported as “binds”.
